Source: patent publication US20130303482A1, “Cylodextrin Complexation Methods for Formulating Peptide Proteasome Inhibitors” (ONYX THERAPEUTICS, INC., priority 2012, published 2013)
The name of at least one read-out is uncertain.

Experiment: Slurry complexation / solubilization of CFZ-API in SBECD with citric acid (Example 1)
Format: physicochemical
Settings: slurry based process of complexation with SBECD
Method: In a 525 L stainless steel jacketed cooled tank controlled to 2° C.-8° C., a suspension of 2.0 kg carfilzomib-API (CFZ-API), 246 kg water for injection (WFI), and 100 kg sulfobutylether beta-cyclodextrin (SBECD) was prepared. Specifically, in the 525 L stainless steel jacketed cooled tank controlled to 2° C.-8° C., 100 kg SBECD was dissolved in 246 kg WFI. The Carfilzomib suspension was then prepared using 2.0 kg of CFZ-API. Mixing was performed using an impeller mixer to maintain suspension of the CFZ-API solids and dissolve the SBECD. In the same vessel, a probe style rotor-stator high shear mixer (homogenizer) was used as well as the low shear impeller. The high shear mixer was operated for approximately 1 hour yielding an even suspension and reduction of particle size for any larger primary particles or agglomerated API. After a suspension was achieved, 1.96 kg of citric acid was added as a 16% aqueous solution. The pH of the solution was then lowered inducing partial solubilization of the CFZ-API followed by and complexation due to the presence of SBECD. Mixing was continued for a further 24 hours with both the impeller and the high shear mixer and a dissolved concentration of CFZ-API of greater than 5.1 mg/mL was achieved. […]

CC(C)C[C@H](NC(=O)[C@H](CCc1ccccc1)NC(=O)CN1CCOCC1)C(=O)N[C@@H](Cc1ccccc1)C(=O)N[C@@H](CC(C)C)C(=O)[C@@]1(C)CO1 [carfilzomib]
solubilization of the CFZ-API over time (FIG. 1): greater than 5 milligrams per milliliter
